Earlier results as cited in patent publication US20200206223A1, “LIQUID DOSAGE FORMS OF IMATINIB” (FTF PHARMA PRIVATE LIMITED, priority 2017, published 2020).
Where a name gives a salt, the structure may show the parent alone. At least one read-out could not be matched to a standard name with certainty.

Settings: oral administration

Structure (SMILES): Cc1ccc(NC(=O)c2ccc(CN3CCN(C)CC3)cc2)cc1Nc1nccc(-c2cccnc2)n1 [Imatinib mesylate, reference compound]
- Time to Cmax post-dose: 2 to 4 h
